Test results: article PMC10721329, “Quisinostat is a brain-penetrant radiosensitizer in glioblastoma” (JCI Insight, 2023)
Values joined by “and” are separate entries in the source; they are usually repeats but may differ in a detail not shown here. Identical values can stand only once. Further values from the same series stand in other lists.

Assays:
U87 flank tumors = test: U87 flank tumor growth, QST with or without IR; format: in vivo, athymic nude mice; settings: individual mice
Protocol: We next examined whether QST treatment alone or in combination with IR would be effective in slowing tumor growth in a flank model of GBM (U87). Tumor-bearing mice receiving IR were treated with 2-Gy fractions on Monday, Wednesday, and Friday (MWF) 2 hours after dosing with either vehicle solution or QST (10 mg/kg), for a total dose of 6 Gy. Following completion of IR, mice continued to receive vehicle or QST until the tumors reached the maximum volume threshold (Figure 5C). […] The mean tumor volume in mice with combination treatment was approximately 4.5-fold less than that in vehicle-treated mice at study completion (Figure 5D). […]
Rad225XL irradiator (Precision X -Ray).
For flank implantations, cells were pre pared in a 1:1 ratio with 100 uL Matrigel (Corning […]
syringe fitted with a 26 -gauge needle. Mice were anesthetized with isoflurane in a plastic desiccator placed in an ex ternally vented fume hood. The U87 -Matrigel cell suspension was then subcutaneously injected into the flank of the mouse on the posterior/lateral aspect of the lower rib cage. Mice were monitored daily , and growth of flank tumor area was measured with a di gital caliper (ThermoFisher) twice a week. […]
Preparation of QST for In Vivo Use
For in vivo preparation, QST was dissolved in 50% polyethylene glycol (PEG) 300, 50% sterile water solution for 10 mg/kg dosing. The suspension was then sonicated for 10 minutes to allow the drug to completely dissolve. Finally, the pH of both the drug and the vehicle solutions was adjusted to 7.4 before intraperitoneal dosing. […]
In Vivo Irradiation Studies
Intracranial or flank tumor–bearing nude mice were sedated with gaseous isoflurane before
IR. On the first week of treatment, 2 hours after treatment with QST or vehicle, the mice were […]
treated with 2 Gy of ionizing radiation on MWF for a total 6 Gy (3 doses). […]
Implanted flank tumors were allowed to grow until the tumor size reached 100 mm3 volume. […] Tumor growth and treatment response were monitored by manually measuring the tumor area twice per week starting at 13 days after implantation. […]

[1] = Stability in mouse plasma at 37°C; format: in vitro ADME; settings: for [QST], % of control: replicates
Protocol: Hydroxamic acid–based compounds have been reported to display poor stability and high plasma clearance due to the presence of arylesterases and carboxylesterases in rodent blood ([34]). Therefore, we measured the stability of QST in mouse plasma and brain to determine whether drug degradation occurred during our sample preparations and equilibrium dialyses for the determination of unbound drug level (performed at 37°C). […] QST degradation was also observed in mouse brain homogenate (Figure 6B). However, perfusion of mice before brain collection prevented rapid drug degradation in the brain matrix. […] Degradation of QST can also be constrained if plasma and brain samples are processed at 4°C (Supplemental Figure 4A). All subsequent sample preparations were therefore performed on ice-cold baths to avoid degradation of QST in our PK analyses. […] The observed stability is probably due to the absence of esterases in human matrices, which are responsible for degradation of QST ([34]). Because we employed QST in several in vitro studies (Figures 1–4), the stability of the molecule was also tested in the cell media used to culture GSCs (neurobasal medium; see Methods).
Stability Study in Mouse Plasma, Mouse Brain, Human Plasma, Human Brain, and Neural […]
The stability of QST was determined in BALB/c mouse plasma, male nude athymic perfused and nonperfused mouse brain homogenate (1:9 w/v of PBS; pH 7.4), human brain (obtained from VRL Eurofins) homogenate (1:4 w/v of PBS; pH 7.4), pooled human plasma (Innovative Research), and neurobasal media. QST stock solutions (1 mM) were prepared in acetonitrile, subsequently diluted in a 40% methanol mixture, and added t o the matrices to make […]
[…] Then 50 or 30 µL of either plasma or brain homogenate containing QST were aliquoted into 1.5-mL microcentrifuge tubes (Eppendorf) and were incubated at either 4 °C or 37 °C for 0, 2, 4, 6, 12, or 24 hours (n = 3 at each time point).
The stability of QST in mouse plasma was also tested at 0, 2, 8, 16, or 24 hours (n = 3 at each time point) in the presence of esterase inhibitors: 0.25 mM BNPP, 1mM dithiobis(2-nitrobenzoic acid) (DTNB), or 1.25 mM phenylmethylsulfonyl fluoride (PMSF). Plasma and brain homogenate samples were stored at −80 °C until LC-MS/MS analysis. […]

[2] = mouse plasma 37C, 500 nM, Time 0
[3] = mouse plasma 37C, 500 nM, Time 1
[4] = mouse plasma 37C, 500 nM, Time 2
[5] = mouse plasma 37C, 500 nM, Time 4
[6] = mouse plasma 37C, 500 nM, Time 8

Cn1cc(CNCC2CCN(c3ncc(C(=O)NO)cn3)CC2)c2ccccc21 [QST, quisinostat]
flank tumor volume (U87 flank tumors; Combo 10 mg/kg Qstat + 6 Gy IR, day 20 post injection): 58.08 mm^3 and 79.9875 mm^3 and 98.3125 mm^3 and 122.4 mm^3 and 165.584 mm^3 and 55.016 mm^3 and 92.4385 mm^3 and 193.027 mm^3 | flank tumor volume (U87 flank tumors; Combo 10 mg/kg Qstat + 6 Gy IR, day 24 post injection): 95.506 mm^3 and 71.442 mm^3 and 69.12 mm^3 and 104.284 mm^3 and 196.463 mm^3 and 79.768 mm^3 and 119.382 mm^3 and 254.016 mm^3 | flank tumor volume (U87 flank tumors; Quisinostat 10 mg/kg IP MWF, day 24 post injection): 438.746 mm^3 and 73.008 mm^3 and 88.872 mm^3 and 373.968 mm^3 and 61.364 mm^3 and 196.02 mm^3 and 112.5 mm^3 and 262.848 mm^3 and 491.102 mm^3 and 306.418 mm^3 | [QST], % of control, Average ([1]; mouse plasma 37C, 10nM, Time 0): 100.0% | [QST], % of control ([1]; mouse plasma 37C, 10nM, Time 0): 96.1% and 98.4% and 105.5% | [QST], % of control, Average ([1]; mouse plasma 37C, 10nM, Time 1): 43.2% | [QST], % of control ([1]; mouse plasma 37C, 10nM, Time 1): 41.3% and 43.5% and 44.8% | [QST], % of control, Average ([1]; mouse plasma 37C, 10nM, Time 2): 16.6% | [QST], % of control ([1]; mouse plasma 37C, 10nM, Time 2): 17.1% and 16.8% and 16.0% | [QST], % of control, Average ([1]; mouse plasma 37C, 10nM, Time 4): 3.0% | [QST], % of control ([1]; mouse plasma 37C, 10nM, Time 4): 2.9% and 3.1% | [QST], % of control, Average ([1]; mouse plasma 37C, 10nM, Time 8): 2.2% | [QST], % of control ([1]; mouse plasma 37C, 10nM, Time 8): 2.6% and 2.0% and 2.1% | [QST], % of control, Average [1, 2]: 100.0% | [QST], % of control [1, 2]: 95.4% and 99.9% and 104.7% | [QST], % of control, Average [1, 3]: 39.7% | [QST], % of control [1, 3]: 38.2% and 40.9% and 39.9% | [QST], % of control, Average [1, 4]: 15.1% | [QST], % of control [1, 4]: 14.0% and 16.4% and 15.0% | [QST], % of control, Average [1, 5]: 1.3% | [QST], % of control [1, 5]: 1.4% and 1.3% | [QST], % of control, Average [1, 6]: 0.1% | [QST], % of control [1, 6]: 0.0874% and 2.5% and 0.11% | [QST], % of control ([1]; mouse plasma, 10 nM, Time 0 hrs as printed): 96.1% and 98.4% and 105.5% | [QST], % of control ([1]; mouse plasma, 10 nM, Time 2 hrs as printed): 41.3% and 43.5% and 44.8% | [QST], % of control ([1]; mouse plasma, 10 nM, Time 4 hrs as printed): 17.1% and 16.8% and 16% | [QST], % of control ([1]; mouse plasma, 100 nM, Time 0 hrs as printed): 95.4% and 99.9% and 104.7% | [QST], % of control ([1]; mouse plasma, 100 nM, Time 2 hrs as printed): 38.2% and 40.9% and 39.9% | [QST], % of control ([1]; mouse plasma, 100 nM, Time 4 hrs as printed): 14% and 16.4% and 15%
